According to PMC7819943, “Rice protein-binding microarrays: a tool to detect cis-acting elements near promoter regions in rice”:
This is one part of the list.

These sequences were tested against T1, OsSMF1 (Oryza sativa, UniProt Q6ZLB0 1-436) (assay: protein-binding microarray (RPBM); PBS, 2% BSA, 51.3 ng/ul salmon testes DNA, 50 uM zinc acetate, 200 nM TF, 25 C, 1 h; high values mean tight binding). Conditions: protein: recombinant; tags: N-terminal polyhistidine and DsRed monomer fusion (pET32a); chain copies: 2; label: CyDye5-dUTP incorporated in the synthesized complementary strand; 3' TTTTT single-stranded linker to array surface; dsDNA, one strand shown.
T1 sequence: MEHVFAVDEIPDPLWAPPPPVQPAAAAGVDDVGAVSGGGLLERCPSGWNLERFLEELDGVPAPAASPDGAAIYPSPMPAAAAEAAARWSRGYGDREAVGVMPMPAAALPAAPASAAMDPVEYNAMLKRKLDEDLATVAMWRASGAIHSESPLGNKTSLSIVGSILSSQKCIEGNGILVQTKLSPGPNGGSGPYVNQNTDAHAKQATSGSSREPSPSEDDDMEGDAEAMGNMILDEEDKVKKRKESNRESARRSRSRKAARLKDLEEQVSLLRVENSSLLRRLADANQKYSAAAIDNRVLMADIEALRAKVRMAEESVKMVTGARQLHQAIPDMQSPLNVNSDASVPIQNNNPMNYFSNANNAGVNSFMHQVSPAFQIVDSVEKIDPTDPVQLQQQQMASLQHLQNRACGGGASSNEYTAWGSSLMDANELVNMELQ
Method in brief: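 Polyhistidine-tagged DsRed fusions of transcription factors, joined at the N-terminus, were expressed in E. coli BL21-CodonPlus and isolated on Ni–NTA. They were incubated at 200 nM for 1 h at 25 °C on a custom Agilent array, double-stranded and BSA-blocked, in PBS with 2% BSA, salmon testes DNA and 50 µM zinc acetate. The binding signal is per-feature fluorescence intensity (arbitrary units) read on an Axon 4000B scanner after washing.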
With “GGATGGTTTATATTTCTTTGCTTACGTGGATCAACCAGGTCGGAGTCACCTAGTGCAG” the binding signal was 20900 fluorescence intensity (a.u.). With “CAGCCCGGACAGCGCGAACGACGCCGCGTCATCCGCCGGACGGAGTCACCTAGTGCAG” the binding signal was 10200 fluorescence intensity (a.u.). For “CTGAACTTATTCCGTGCGCTTACACGTGGCCCATGAGGCACGGAGTCACCTAGTGCAG”, the binding signal was 5480 fluorescence intensity (a.u.). In the case of “CAAAGTCTTTTGGGAAAGCCAAATCTGTCCACCTCACCATCGGAGTCACCTAGTGCAG”, the binding signal is reported as 7460 fluorescence intensity (a.u.). “GCTGATGAATGATGTTGTGCAATTATAATTTTCTTCTTCTCGGAGTCACCTAGTGCAG” was tested, and the binding signal was 3950 fluorescence intensity (a.u.). With “AAGCAAGATTCTGCGTGCTGTGAACTACTATTCAACAAGTCGGAGTCACCTAGTGCAG” the binding signal was 28500 fluorescence intensity (a.u.). In the case of “ATAAATTATATATAGAAAAGTTTTCGTACAAAATATAATACGGAGTCACCTAGTGCAG”, the binding signal is reported as 28900 fluorescence intensity (a.u.). In the case of “AGGGTGATGTAATAATATAGATTGTAGAACCCTAATATCGCGGAGTCACCTAGTGCAG”, the binding signal is reported as 3220 fluorescence intensity (a.u.). In the case of “GAATCATATTCTATTACTATTACTACTTGGAATATGAGTTCGGAGTCACCTAGTGCAG”, the binding signal is reported as 3470 fluorescence intensity (a.u.). For “GTTTTGGTTGTAGACGTGGTTTGATAATAGTTGGCTAAGGCGGAGTCACCTAGTGCAG”, the binding signal was 3780 fluorescence intensity (a.u.). “CTTCACCGGTGGCATACCACCGTGGCTGGCTTCTATGCCTCGGAGTCACCTAGTGCAG” was tested, and the binding signal was 3400 fluorescence intensity (a.u.). With “ACAATGGGCTGTGACGTGCTAGCCTGGGTCGGCCCAAGTCCGGAGTCACCTAGTGCAG” the binding signal was 5620 fluorescence intensity (a.u.). “GTCGGCAAGGAGAAGGATGGATCAGAATAGTCATAGATGGCGGAGTCACCTAGTGCAG” was tested, and the binding signal was 24300 fluorescence intensity (a.u.). “AGGCGCCACGACGGAACGGGCGCTACAATGTATCACTTTTCGGAGTCACCTAGTGCAG” was tested, and the binding signal was 4420 fluorescence intensity (a.u.). In the case of “TGAGACCGGAAATCATCGGATCTACATGTCAGTGACACGGCGGAGTCACCTAGTGCAG”, the binding signal is reported as 5460 fluorescence intensity (a.u.). For “AGGAGGTAGGATAGTTCCCTCCGTAATGGATCGAGGATGTCGGAGTCACCTAGTGCAG”, the binding signal was 42000 fluorescence intensity (a.u.). “GAGATTATATGTGATCTCTTAATAAGAGGTCCTACTCGAACGGAGTCACCTAGTGCAG” was tested, and the binding signal was 3310 fluorescence intensity (a.u.). “CATATCCGCATCTGCATCCGCATCTGGCCGGATATCTAAACGGAGTCACCTAGTGCAG” was tested, and the binding signal was 23900 fluorescence intensity (a.u.). In the case of “ACTACATTGGATGACAACTAGGCCCCACTACTGATTAAGTCGGAGTCACCTAGTGCAG”, the binding signal is reported as 3210 fluorescence intensity (a.u.). With “CCACCACCGTGACGCCGTGTCCACACGCAGCCCGAGCCGCCGGAGTCACCTAGTGCAG” the binding signal was 3230 fluorescence intensity (a.u.). For “GGTGCGGGTAGCGCGCGCGCGCATCGCCTCGTCGGAGGAGCGGAGTCACCTAGTGCAG”, the binding signal was 3570 fluorescence intensity (a.u.). For “TGATCATTTTCACGGCGGAGGTAAAGTGGTACAGTCACATCGGAGTCACCTAGTGCAG”, the binding signal was 3600 fluorescence intensity (a.u.). With “CGGACGCCGCTGCAGTACCCAATGACGACACCACCACCACCGGAGTCACCTAGTGCAG” the binding signal was 4200 fluorescence intensity (a.u.). In the case of “TCGGTTGAGAAGACTTGGTCATCTCAACCACCGACGCAGGCGGAGTCACCTAGTGCAG”, the binding signal is reported as 3470 fluorescence intensity (a.u.). With “AGTGAATTCGAATTCACGGTTCGTTCCGTCCTCCTCCCTGCGGAGTCACCTAGTGCAG” the binding signal was 32500 fluorescence intensity (a.u.). With “AATAGTACGGCGCTGAGTGCACGTTGGCACGCCGACTCAGCGGAGTCACCTAGTGCAG” the binding signal was 3930 fluorescence intensity (a.u.). In the case of “GTTCGGATCTACATACCACGTATATATAACGTATTGATTGCGGAGTCACCTAGTGCAG”, the binding signal is reported as 5060 fluorescence intensity (a.u.). “GAGGAAATGCCTGGGAGGAGGAGGAGGGACTCGGGGCGGGCGGAGTCACCTAGTGCAG” was tested, and the binding signal was 3910 fluorescence intensity (a.u.). With “CGCCGCCTGCTCCCCGTCGCCGTCGGCGCTGGCGGCGGGGCGGAGTCACCTAGTGCAG” the binding signal was 3190 fluorescence intensity (a.u.). “CACGCGCCGGTGCCTTGCGCCGTCACCGTGCCAGCCCAGCCGGAGTCACCTAGTGCAG” was tested, and the binding signal was 5670 fluorescence intensity (a.u.). With “ATGGCCAACGCTCCACGCTGGAGCGTGGTCTCACCCTTTCCGGAGTCACCTAGTGCAG” the binding signal was 4110 fluorescence intensity (a.u.). For “CGAACATAAGTTAGTGACGCATGCCTCAAAATGAAAAGGACGGAGTCACCTAGTGCAG”, the binding signal was 41400 fluorescence intensity (a.u.). “TAAGGCCTAAACCCAACTCAATCTCTCTAATTCATTTTGCCGGAGTCACCTAGTGCAG” was tested, and the binding signal was 3310 fluorescence intensity (a.u.). In the case of “AAGCTTGATATATGAAATTGTACAGGCCATCAAAGTCAAGCGGAGTCACCTAGTGCAG”, the binding signal is reported as 3850 fluorescence intensity (a.u.). In the case of “CCAAAGCCACTTTTGACCGTGGTCTTACCTACGTGACACGCGGAGTCACCTAGTGCAG”, the binding signal is reported as 5060 fluorescence intensity (a.u.). “GACCGTCGGTGCAAACACGATCGGACGGTGGAGGACGATCCGGAGTCACCTAGTGCAG” was tested, and the binding signal was 3250 fluorescence intensity (a.u.). “TTTTAGTGAATATAATGAAATTTCACAGGGGAGGGGCTGGCGGAGTCACCTAGTGCAG” was tested, and the binding signal was 4040 fluorescence intensity (a.u.). With “GGACCGAACTGACCCTACATTGCATGAATAATGCAGAGGTCGGAGTCACCTAGTGCAG” the binding signal was 20800 fluorescence intensity (a.u.). In the case of “TCGCCTCTTGTGCCATTATCTGACTGGGGCTGATGAACAACGGAGTCACCTAGTGCAG”, the binding signal is reported as 3370 fluorescence intensity (a.u.). With “TATCGTACGCGACTAGGCGTGTGAGGTGACGGCAGTTTTGCGGAGTCACCTAGTGCAG” the binding signal was 3840 fluorescence intensity (a.u.). “GGGGTGCTTCACAAATCCCCTTGCGTACATGAGGTGTTTTCGGAGTCACCTAGTGCAG” was tested, and the binding signal was 3320 fluorescence intensity (a.u.). “CACCTAGCACAGCACCATGACTAGACTATGATCATCAATTCGGAGTCACCTAGTGCAG” was tested, and the binding signal was 3580 fluorescence intensity (a.u.).
